Tests used:
[1] = general procedure: Fmoc solid-phase peptide synthesis; H-Phe-2-ClTrt resin (Novabiochem, 0.73 mmol/g); details: late stage modification step
[2] = general procedure: Fmoc solid-phase peptide synthesis; H-Phe-2-ClTrt resin; details: whole synthesis, scale 0.75 mmol

Substance | step yield [1] [% yield] | crude mass [2] [g] | crude yield [2] [%]
Fatty Acid-Linker#1Q-R-P-R-L-C*-H-K-G-P-(Nle)-C*-F (C6-C12 Disulfide Bridge) | 54 |  | 
H2N-Q(Trt)-R(Pbf)-P-R(Pbf)-L-C(Trt)-H(Trt)-K(Boc)-G-P-(Nle)-C(Trt)-F-COOH |  | 2.09 | 68

From patent US9931372B2 (Novartis AG, priority 2015, dated 2018)
